From paper PMC10502815 come the findings set out here.

Sequences of proteins named here, by UniProt entry; tags and fusion partners are left off. A change or cut given only in a name is not applied to a line headed by its entry.
UniProt Q07817: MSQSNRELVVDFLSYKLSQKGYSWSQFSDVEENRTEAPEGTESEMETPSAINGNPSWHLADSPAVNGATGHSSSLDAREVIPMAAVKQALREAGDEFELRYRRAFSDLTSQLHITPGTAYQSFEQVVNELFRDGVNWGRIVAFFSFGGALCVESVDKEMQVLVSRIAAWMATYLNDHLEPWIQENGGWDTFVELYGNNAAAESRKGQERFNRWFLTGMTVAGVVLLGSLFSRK

These are yes or no findings as the source states them, for the method shown. Binding seen in cells or lysates may run through a third protein. Some results given as binding are weak or reduced against the parent protein; the word gives no strength. For some assays here: Sequences can lack the tags named with a protein.

Assay [1] addresses T1, ubiquitin specific peptidase 13 (USP13), endogenous (human (endogenous in HK-2)) (UniProt Q92995).
T1 sequence: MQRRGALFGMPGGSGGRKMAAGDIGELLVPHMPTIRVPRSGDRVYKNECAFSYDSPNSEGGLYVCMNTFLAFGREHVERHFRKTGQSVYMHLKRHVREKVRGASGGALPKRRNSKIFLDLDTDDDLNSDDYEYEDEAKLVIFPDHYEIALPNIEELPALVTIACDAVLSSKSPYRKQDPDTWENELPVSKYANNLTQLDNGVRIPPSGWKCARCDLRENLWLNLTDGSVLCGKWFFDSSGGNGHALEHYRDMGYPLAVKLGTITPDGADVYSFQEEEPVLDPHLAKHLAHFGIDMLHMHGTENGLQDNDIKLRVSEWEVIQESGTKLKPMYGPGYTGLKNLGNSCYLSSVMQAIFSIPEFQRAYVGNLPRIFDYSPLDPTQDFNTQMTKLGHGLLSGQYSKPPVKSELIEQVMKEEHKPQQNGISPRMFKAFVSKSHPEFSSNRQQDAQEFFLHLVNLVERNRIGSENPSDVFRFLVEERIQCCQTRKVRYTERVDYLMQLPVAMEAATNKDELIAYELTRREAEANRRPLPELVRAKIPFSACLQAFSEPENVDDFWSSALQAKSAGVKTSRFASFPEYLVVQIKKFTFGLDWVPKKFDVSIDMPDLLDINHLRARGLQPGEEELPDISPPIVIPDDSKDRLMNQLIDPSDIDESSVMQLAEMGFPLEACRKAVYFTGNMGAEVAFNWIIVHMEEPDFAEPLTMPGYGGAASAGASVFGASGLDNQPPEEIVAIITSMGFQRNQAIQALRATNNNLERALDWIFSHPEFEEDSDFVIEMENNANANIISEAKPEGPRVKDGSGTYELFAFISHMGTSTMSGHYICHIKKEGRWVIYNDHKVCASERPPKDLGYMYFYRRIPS
As to the kind of experiment: co-IP; endogenous proteins of HK-2 cells; IP buffer pH 7.5 (50 mM Tris-base, 150 mM NaCl, 2 mM EGTA, 25 mM NaF, 25 mM β-sodium glycerophosphate); protein A/G Plus-agarose and primary antibody, IgG as negative control; Western blot. On the technique in general: Immunoblotting shows a protein as a band on a membrane.

For assay [2], the target named is BCL2 like 1 (Bcl-XL), Flag-tagged (UniProt Q07817). Put plainly: co-IP; HEK293T co-transfected with USP13-Myc and Bcl-XL-Flag, 10 µM MG-132 for 12 h; lysis in 1% NP-40 buffer pH 8.0 (25 mM Tris-base, 150 mM NaCl, 10% glycerol); 500 µg lysate with anti-Flag beads at 4 °C overnight; anti-Myc blot.

Take “BCL2 like 1 (Bcl-XL), endogenous (from UniProt Q07817-1 1-233)”: the binding entry in assay [1] is reported as “binds”.

B1: ubiquitin specific peptidase 13 (USP13), Myc-tagged (enzyme, UniProt Q92995 1-863)
chain: T1 sequence
Consider B1, for which the binding result in assay [2] is listed as “binds”.
